Laboratory results reported in the supplement of paper PMC11542785.
Structures can show the parent of a compound that is named as a salt. The list shows a part of the results. Repeats are few or missing, and single values can be far off.

System: Drosophila melanogaster DPAGT1 (Alg7) RNAi eye model
Test: eye size Z-score vs DMSO-treated DPAGT1 model flies; higher = larger eye (suppression of DPAGT1 phenotype)
Conditions: 5 uM

Row | SMILES | eye size Z-score | eye size Z-score (female)
1 | O=C1NCCN1CCN1CCC(c2cn(-c3ccc(F)cc3)c3ccc(Cl)cc23)CC1 [Sertindole] | 0.33 | –
2 | O=C1[C@@H]2[C@H]3CC[C@H](C3)[C@@H]2C(=O)N1CCCCN1CCN(c2ncccn2)CC1 [Tandospirone] | -1.06 | –
3 | O=C1OC(CN2CCOCC2)CN1/N=C/c1ccc([N+](=O)[O-])o1 (stereo not given) [Furaltadone hydrochloride] | -0.61 | –
4 | Cc1ccsc1C(=CCCN1CCC[C@@H](C(=O)O)C1)c1sccc1C [Tiagabine hydrochloride] | 0.38 | –
5 | CNCCCN1c2ccccc2CCc2ccccc21 [Desipramine hydrochloride] | -1.1 | –
6 | CCOc1cc(N)c(Cl)cc1C(=O)NCC1CN(Cc2ccc(F)cc2)CCO1 (stereo not given) [Mosapride] | -0.13 | –
7 | CCC(C)n1ncn(-c2ccc(N3CCN(c4ccc(OCC5COC(Cn6cncn6)(c6ccc(Cl)cc6Cl)O5)cc4)CC3)cc2)c1=O (stereo not given) [Itraconazole] | -0.56 | –
8 | Cc1cccc(Nc2ccccc2C(=O)O)c1C [Mefenamic acid] | 0.36 | –
9 | C[n+]1ccccc1/C=N/O [Pralidoxime chloride] | 0.01 | –
10 | C[C@H]1[C@H](OC(=O)CCC(=O)O)O[C@@H]2O[C@@]3(C)CC[C@H]4[C@H](C)CC[C@@H]1[C@@]24OO3 [Artesunate] | 0.03 | –
11 | CCCCCCCCCCCCCCCCCCCCCC(=O)Nc1ccn([C@@H]2O[C@H](CO)[C@@H](O)[C@@H]2O)c(=O)n1 [Enocitabine] | 1.79 | –
12 | CC(C)NCC(O)c1cc(O)cc(O)c1 (stereo not given) [Metaproterenol sulfate] | 1.24 | –
13 | CC(C)NCC(O)COc1cccc2[nH]c3ccccc3c12 (stereo not given) [Carazolol] | 0.96 | –
14 | O=C(O)CN(CCN(CC(=O)O)CC(=O)O)CCN(CC(=O)O)CC(=O)O [Pentetic acid] | -0.19 | –
15 | C#CCN(C)CCCOc1ccc(Cl)cc1Cl [Clorgyline hydrochloride] | 0.86 | –
16 | Cn1c(=O)c2c(ncn2CCO)n(C)c1=O [Etofylline] | 0.14 | –
17 | COc1ccccc1N1CCN(CCCNc2cc(=O)n(C)c(=O)n2C)CC1 [Urapidil hydrochloride] | -1.02 | –
18 | COc1nc(N)nc2c1ncn2[C@@H]1O[C@H](CO)[C@@H](O)[C@@H]1O [Nelarabine] | 0.64 | –
19 | OC[C@H]1O[C@H](O[C@H]2O[C@H](CO)[C@@H](O)[C@H](O)[C@H]2O)[C@H](O)[C@@H](O)[C@@H]1O [Trehalose dihydrate] | 1.07 | –
20 | CCC(=O)OCC(=O)[C@@]1(OC(=O)CC)[C@@H](C)C[C@H]2[C@@H]3CCC4=CC(=O)C=C[C@]4(C)[C@@]3(Cl)[C@@H](O)C[C@@]21C [Beclomethasone dipropionate] | -0.42 | –
21 | CCN(CC)Cc1cc(Nc2ccnc3cc(Cl)ccc23)ccc1O [Amodiaquine dihydrochloride dihydrate] | 0.48 | –
22 | COCC(=O)O[C@]1(CCN(C)CCCc2nc3ccccc3[nH]2)CCc2cc(F)ccc2[C@@H]1C(C)C [Mibefradil hydrochloride] | 1.06 | –
23 | C=CCSCC1Nc2cc(Cl)c(S(N)(=O)=O)cc2S(=O)(=O)N1 (stereo not given) [Althiazide] | -0.45 | –
24 | c1ccc(CN(CC2=NCCN2)c2ccccc2)cc1 [Antazoline hydrochloride] | 0.19 | –

Row | SMILES | eye size Z-score | eye size Z-score (female)
25 | CN(C)CC/C=C1/c2ccccc2COc2ccc(CC(=O)O)cc21 [Olopatadine hydrochloride] | 1.39 | –
26 | CC(C(=O)O)c1ccc(C(=O)c2ccccc2)s1 (stereo not given) [Tiaprofenic acid] | 1.28 | –
27 | NC(=O)NS(=O)(=O)c1ccc(N)cc1 [Sulfacarbamide] | 1.57 | –
28 | CC(=O)N(CC(O)CN(C(C)=O)c1c(I)c(C(=O)NCC(O)CO)c(I)c(C(=O)NCC(O)CO)c1I)c1c(I)c(C(=O)NCC(O)CO)c(I)c(C(=O)NCC(O)CO)c1I (stereo not given) [Iodixanol] | 0.12 | –
29 | N=C(N)NCCN1CCCCCCC1 [Guanethidine sulfate] | -0.82 | –
30 | C#C[C@]1(O)CC[C@H]2[C@@H]3CCC4=CC(=O)CC[C@@H]4[C@H]3CC[C@@]21CC [(D-) Norgestrel] | -0.39 | –
31 | CC(CN(C)C)CN1c2ccccc2Sc2ccccc21 (stereo not given) [Trimeprazine tartrate] | -0.05 | –
32 | CC1(C)[C@@H](OC(=O)CCC(=O)O)CC[C@]2(C)[C@H]3C(=O)C=C4[C@@H]5C[C@@](C)(C(=O)O)CC[C@]5(C)CC[C@@]4(C)[C@]3(C)CC[C@@H]12 [Carbenoxolone disodium salt] | -0.33 | –
33 | C=CCOC(Cn1ccnc1)c1ccc(Cl)cc1Cl (stereo not given) [Enilconazole] | 0.53 | –
34 | CC(CN(C)C)C(C)(O)Cc1ccc(Cl)cc1 (stereo not given) [Clobutinol hydrochloride] | – | 0.03
35 | C[C@]1(Cn2ccnn2)[C@H](C(=O)O)N2C(=O)C[C@H]2S1(=O)=O [Tazobactam] | -0.27 | –
36 | CC[C@@H](CO)NCCN[C@@H](CC)CO [Ethambutol dihydrochloride] | 0.9 | –
37 | CC(=O)OCC(=O)[C@@]1(OC(C)=O)[C@@H](C)C[C@H]2[C@@H]3C[C@H](F)C4=CC(=O)C=C[C@]4(C)[C@@]3(F)[C@@H](O)C[C@@]21C [Diflorasone Diacetate] | -0.57 | –
38 | CCN(CC)CCOCCOC(=O)C(CC)(CC)c1ccccc1 [Oxeladin citrate] | 0.3 | –
39 | CCCOc1ccc(C(=O)OCCN(CC)CC)cc1N [Proparacaine hydrochloride] | 0.02 | –
40 | NC1CCN(c2nc3c(cc2F)c(=O)c(C(=O)O)cn3-c2ccc(F)cc2F)C1 (stereo not given) [Tosufloxacin hydrochloride] | -0.2 | –
41 | COC(=O)Nc1nc2cc([S+]([O-])c3ccccc3)ccc2[nH]1 (stereo not given) [Oxfendazole] | 0.44 | –
42 | COc1ccccc1OCC(O)COC(N)=O (stereo not given) [Methocarbamol] | -0.64 | –
43 | Cc1cc(N)c2ccccc2[n+]1CCCCCCCCCC[n+]1c(C)cc(N)c2ccccc21 [Dequalinium dichloride] | 0.24 | –
44 | Nc1ccn([C@@H]2CS[C@H](CO)O2)c(=O)n1 [Lamivudine] | 1.02 | –
45 | CO/N=C(\C(=O)N[C@@H]1C(=O)N2C(C(=O)OC(C)OC(C)=O)=C(COC(N)=O)CS[C@H]12)c1ccco1 (stereo not given in full) [Cefuroxime axetil] | -0.23 | –
46 | NC(=O)[C@@H]1CCCN1C(=O)[C@H](Cc1c[nH]cn1)NC(=O)[C@@H]1CCC(=O)N1 [Thyrotropin-Releasing Hormone] | -0.54 | –
47 | O=C(c1ccccc1)c1ccc2n1CCC2C(=O)O (stereo not given) [Ketorolac tromethamine] | 0.51 | –
48 | CCOC(=O)[C@@](C)(N)Cc1ccc(O)c(O)c1 [Methyldopate hydrochloride] | 0 | –

Fetched by structure from above, five records:
Row | SMILES | eye size Z-score | eye size Z-score (female)
44 | Nc1ccn([C@@H]2CS[C@H](CO)O2)c(=O)n1 [Lamivudine] | 1.02 | –
29 | N=C(N)NCCN1CCCCCCC1 [Guanethidine sulfate] | -0.82 | –
26 | CC(C(=O)O)c1ccc(C(=O)c2ccccc2)s1 (stereo not given) [Tiaprofenic acid] | 1.28 | –
27 | NC(=O)NS(=O)(=O)c1ccc(N)cc1 [Sulfacarbamide] | 1.57 | –
40 | NC1CCN(c2nc3c(cc2F)c(=O)c(C(=O)O)cn3-c2ccc(F)cc2F)C1 (stereo not given) [Tosufloxacin hydrochloride] | -0.2 | –

Further structures follow:

Row | SMILES | eye size Z-score | eye size Z-score (female)
49 | COc1c(N2CCNC(C)C2)c(F)cc2c(=O)c(C(=O)O)cn(C3CC3)c12 (stereo not given) [Gatifloxacin] | 1.08 | –
50 | CN1Cc2c(N)cccc2C(c2ccccc2)C1 (stereo not given) [Nomifensine maleate] | 0.84 | –
51 | CCN[C@@H]1C[C@H](N)[C@@H](O[C@H]2OC(CN)=CC[C@H]2N)[C@H](O)[C@H]1O[C@H]1OC[C@](C)(O)[C@H](NC)[C@H]1O [Netilmicin sulfate] | 1.17 | –
52 | CC(C)(O)c1ccccc1CC[C@@H](SCC1(CC(=O)O)CC1)c1cccc(/C=C/c2ccc3ccc(Cl)cc3n2)c1 [Montelukast] | -0.55 | –
53 | c1ccc(CNc2ncnc3nc[nH]c23)cc1 [Aminopurine, 6-benzyl] | 0.87 | –
54 | Nc1ccc(S(=O)(=O)Nc2ccccn2)cc1 [Sulfapyridine] | 0.71 | –
55 | Nc1ccn([C@@H]2O[C@H](CO)[C@@H](O)[C@@H]2O)c(=O)n1 [Cytarabine] | 0.71 | –
56 | COc1ccnc(C[S+]([O-])c2nc3cc(OC(F)F)ccc3[nH]2)c1OC (stereo not given) [Pantoprazole sodium] | -0.02 | –
57 | C[C@@H]1C[C@H]2[C@@H]3C[C@H](F)C4=CC(=O)C=C[C@]4(C)[C@@]3(F)[C@@H](O)C[C@]2(C)[C@@]1(O)C(=O)COC(=O)C(C)(C)C [Flumethasone pivalate] | 0.12 | –
58 | O=c1[nH]cnc2c1ncn2[C@@H]1O[C@H](CO)[C@@H](O)[C@H]1O [Inosine] | 1.04 | –
59 | CCOc1ccccc1OC(c1ccccc1)C1CNCCO1 (stereo not given) [Reboxetine mesylate] | -0.13 | –
60 | CCN1/C(=C/C=C/C=C/c2sc3ccccc3[n+]2CC)Sc2ccccc21 [Dithiazanine iodide] | -0.14 | –
61 | CN(C)CCCN1c2ccccc2Sc2ccc(Cl)cc21 [Chlorpromazine hydrochloride] | -0.27 | –
62 | COc1ccc(CC2c3cc(OC)c(OC)cc3CC[N+]2(C)CCC(=O)OCCCCCOC(=O)CC[N+]2(C)CCc3cc(OC)c(OC)cc3C2Cc2ccc(OC)c(OC)c2)cc1OC (stereo not given) [Atracurium besylate] | 0.45 | –
63 | CC(=O)[C@H]1CC[C@H]2[C@@H]3CC=C4C[C@@H](O)CC[C@]4(C)[C@H]3CC[C@]12C [Pregnenolone] | 0.56 | –
64 | CC(C(=O)O)c1ccc2c(c1)CC(=O)c1ccccc1S2 (stereo not given) [Zaltoprofen] | -0.54 | –
65 | CCN(CCO)CCCC(C)Nc1ccnc2cc(Cl)ccc12 (stereo not given) [Hydroxychloroquine sulfate] | -0.43 | –
66 | CCCCN1CCCCC1C(=O)Nc1c(C)cccc1C (stereo not given) [Bupivacaine hydrochloride] | 0.29 | –
67 | CCOC(=O)NNc1nncc2ccccc12 [Todralazine hydrochloride] | 1.32 | –
68 | CC(C)(C)c1ccc(C(O)CCCN2CCC(C(O)(c3ccccc3)c3ccccc3)CC2)cc1 (stereo not given) [Terfenadine] | 1.46 | –
69 | CC(COc1ccccc1)NC(C)C(O)c1ccc(O)cc1 (stereo not given) [Isoxsuprine hydrochloride] | -0.53 | –
70 | CCCCC1(COC(=O)CCC(=O)O)C(=O)N(c2ccccc2)N(c2ccccc2)C1=O [Suxibuzone] | -0.29 | –
